Results on 3 molecules are retold here after doi:10.1101/2020.11.16.385906.

Amino acid sequences for entries named in this document (tags omitted). A change or cut given only in a name is not applied to a line headed by its entry.
UniProt Q9BL47: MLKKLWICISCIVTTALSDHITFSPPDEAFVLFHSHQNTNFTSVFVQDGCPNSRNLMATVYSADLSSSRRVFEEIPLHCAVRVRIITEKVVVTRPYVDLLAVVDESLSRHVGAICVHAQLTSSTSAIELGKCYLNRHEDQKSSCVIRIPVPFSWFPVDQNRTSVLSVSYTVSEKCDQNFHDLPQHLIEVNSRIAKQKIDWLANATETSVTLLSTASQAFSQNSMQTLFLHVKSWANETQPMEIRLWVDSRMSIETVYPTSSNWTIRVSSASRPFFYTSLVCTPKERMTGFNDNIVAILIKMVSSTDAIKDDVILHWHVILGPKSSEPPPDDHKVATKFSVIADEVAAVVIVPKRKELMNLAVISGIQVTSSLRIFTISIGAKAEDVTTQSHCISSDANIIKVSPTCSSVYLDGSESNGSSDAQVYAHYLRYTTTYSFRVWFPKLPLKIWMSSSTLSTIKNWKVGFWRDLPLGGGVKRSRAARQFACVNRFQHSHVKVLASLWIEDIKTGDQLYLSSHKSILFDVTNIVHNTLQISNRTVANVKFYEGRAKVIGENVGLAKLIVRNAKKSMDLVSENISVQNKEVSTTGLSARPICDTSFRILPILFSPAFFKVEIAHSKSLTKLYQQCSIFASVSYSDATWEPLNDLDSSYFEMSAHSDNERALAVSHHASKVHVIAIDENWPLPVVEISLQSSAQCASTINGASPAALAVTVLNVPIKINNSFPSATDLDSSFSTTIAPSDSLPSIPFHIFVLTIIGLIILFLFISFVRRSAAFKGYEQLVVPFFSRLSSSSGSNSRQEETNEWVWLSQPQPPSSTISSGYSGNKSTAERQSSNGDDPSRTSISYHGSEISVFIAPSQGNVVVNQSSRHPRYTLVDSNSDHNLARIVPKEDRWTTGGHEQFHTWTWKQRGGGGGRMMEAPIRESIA

The target in assay [1] is C-terminus of C. elegans TMEM-132 (yeast two-hybrid bait) (C. elegans) (UniProt Q9BL47). Description: two-hybrid.
The target is the same in assay [2]. Description: two-hybrid. The source holds these as a separate data set.

Like-named read-outs stand apart in the source and are kept apart here. Results are given in words; binding and its absence hold for the method and conditions named. A result given as binding can be weak or reduced; the word gives no strength.

With “GEX-3 C-terminal 60 a.a. fragment (yeast two-hybrid) (from UniProt P55163) (domain or fragment)”, the binding entry in assay [1] is “binds”. Regarding “GEX-3 C-terminal 600 a.a. fragment (yeast two-hybrid) (from UniProt P55163) (domain or fragment)”, the binding result in assay [1] was “binds”.

B1: GEX-3 full length (yeast two-hybrid) (protein, UniProt P55163 1-1141)
chain: MAYKDARQVKIAEKLVILNDRAAGMMTRIYNIKKSSGDSKVKPQFLSDKKMEGAIKHIVRKFPVVDCRSNSSTFEYVQEKSTEITKSLSLYYYTFADILDLKDHIMQVLTTMESCQCQLDVTLNYDLTTSYLNLVVHLVTMMILLSRIEDRKAVLGLFNAAYDLQHGQSEASFPRLGQMILDYENPLKKLHEDLGPLNRLIYSALSSVTHTYQRRNKTADSWRTSNVFSLTAAPAQILYAAQTETIACEYLSLDVIDRWIVFCGTVCHSTLLNDDNIRHMWQLALQMNLCLRVFRDETFIVHQEIQAFLESSKEKSKRLQDVKDAFNHASVTAVAVHADRRRFLRSSLRELSLLLRDQPGLLGPKILYVWMALGAGRDEVIWLLRHQVEVPAISKKGSRMVEELVDRQLPELLFYMLELRDLVTKYYAVIQRYYLQYVSSYDSIVVSEEINQANGLTQEEAVLLTDFANEIGNINSDTDLRALRLDWFRFQAWTSAARSHFQLSRHKKLAIYMNTSVFHLKMIDLQDEMLRETSDLSLYCFYPKLAEKHWLNCLQLPAQARYVLSFARLAAHFTSALHDMCPEEKAFITEKALAQCNSVIEETCKQLSYILEKVAEHEFGLAYQMTPSAVAVRVVAQVVQQKGSGKAAAAAAAAARDYFIAGEESYRVDRQALTMPDKLQTTLLEISAALGAHRQIYVADHTFAPRTYLAQSLETKFVELLHGMFWEGQPHASNPKRPSEMLLALQAYMTVLQNLDTAISVDISNTMQTTLLQQTQLVDSKNKDTIAALYTKWYLEVLLRRASSGHMVWSEHLRTMLSSGQEQLSFMPDHYSDPQELRALVQIIGPYGVKLMTERLIWHVASQIMEMSKIVATYKDALQIARSNFDNAEKMKDVLNLLSVEPKDKKTPNATCAADAILQRTIIIGQICLFRDALHDALRHIVESKLPFLQASFDMLYHNLDDVDKVKIGEMSAAMGVTGPVDMSLVNAVRAQNPNIHPQEHYVNSCLLMVAVAICIPRIGMSDLSSYKPSIQASLNNSHCVPMAINTIGSALFHLHEQNDIQSRMKEFLALASSGILRTIHERDNSRQISDDVLRSHTTLYIILEQMVRKNRWLSMDVLETCFPYNLVRTAYQQCYEADAQ
B1: the binding result in assay [2] is “binds”.
